Measurements taken from PubChem BioAssay AID2685 (National Center for Advancing Translational Sciences (NCATS), 2010).
Some of the results follow. Further columns of the screen follow, without active or inactive calls. Most of these compounds were active or inconclusive in the main read-out, so they are no random draw. The note in brackets gives the kind of curve behind each potency; many fits are weak.

Assay: qHTS Assay for Lipid Storage Modulators in Drosophila S3 Cells;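 on cell number change: cells counted by Cell Tracker Red CMTPX staining in the red channel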
Settings: BODIPY lipid droplet fluorescence, 18-24 h; for cell number change: measured here: cell count max response, cells fed with added oleic acid
Procedure, shortened: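 Drosophila S3 cells got compounds at several concentrations plus oleic acid (400 uM solution). Laser-scanning cytometry with 488 nm excitation read lipid droplets at 500-530 nm and cells at 575-640 nm. Percent activity was relative to 20 uM Triacsin C.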

[1] = measured here: lipid fluorescence (Fed channel) AC50, cells fed with added oleic acid
[2] = measured here: cell number channel AC50, cells fed with added oleic acid

Compound: CCS(=O)(=O)N1CCC(C(=O)NCCCN2CCCCCC2)CC1
- cell number change: -19.3%
- AC50 [1]: 20.6 µM [falling, partial curve]

Compound: CCOc1ccccc1NC(=O)NCc1ccc(F)cc1
- cell number change: 6.21%

Compound: Cc1ccc(C)c(N(C(=O)Cn2nnc3ccccc32)C(C(=O)NCc2ccco2)c2ccncc2)c1 (configuration not stated)
- cell number change: 22%
- AC50 [1]: 2.06 µM [rising, partial curve]

Compound: CC(=O)Oc1cccc(N2C(=O)CC(Nc3ccc(N4CCOCC4)cc3)C2=O)c1 (configuration not stated)
- cell number change: -7.01%

Compound: C#CCOCCOCCOCCNc1nc(N2CCN(C(=O)C(Cc3ccc(O)cc3)n3cc(C(N)C(C)CC)nn3)CC2)nc(N2CCN(C(=O)C(Cc3ccc(O)cc3)n3cc(C(N)C(C)CC)nn3)CC2)n1 (configuration not stated)
- cell number change: -11.7%
- AC50 [1]: 3.66 µM [falling, full curve, poor fit]

Compound: Cc1c(F)cccc1NC(=O)CCC(=O)O
- cell number change: -11.4%
- AC50 [1]: 29.1 µM [falling, single point]

Compound: N#Cc1cccc(S(=O)(=O)N2CCN(c3ccnc4cc(Cl)ccc34)CC2)c1
- AC50 [2]: 3.66 µM [rising, partial curve, poor fit]
- AC50 [1]: 6.51 µM [rising, single point]

Compound: Cc1ccccc1Cn1c(C(=O)OC(C)C)cc2c1ccn2C
- cell number change: -28.5%
- AC50 [1]: 3.66 µM [falling, full curve]

Compound: C#CCNC(=O)c1cc2sccc2n1C
- cell number change: 0.959%
- AC50 [1]: 0.00461 µM [falling, full curve, poor fit]

Compound: CC(=O)Nc1ccc(S(=O)(=O)Nc2cccc3[nH]ncc23)cc1
- cell number change: -53.4%
- AC50 [2]: 14.6 µM [falling, partial curve]
- AC50 [1]: 29.1 µM [falling, single point]

Compound: CCN(CC)S(=O)(=O)c1cccc(-c2nnc(SC(C)C(N)=O)n2CCc2ccccc2)c1 (configuration not stated)
- AC50 [2]: 3.66 µM [rising, single point]

Compound: CN(C(=O)COC(=O)COc1ccccc1F)C1CCS(=O)(=O)C1 (configuration not stated)
- cell number change: 27.8%
- AC50 [1]: 29.1 µM [rising, single point]

Compound: COc1ccc(O)c(CN2CCN(C/C=C/c3ccccc3)CC2)c1
- cell number change: 13.7%
- AC50 [1]: 0.13 µM [falling, partial curve, poor fit]

Compound: COCCN1C(=O)N(c2ccccc2)C(=O)C1CC(=O)Nc1cc(OC)cc(OC)c1 (configuration not stated)
- cell number change: -3.81%
- AC50 [1]: 29.1 µM [rising, single point]

Compound: CN(C)S(=O)(=O)c1ccc(C(=O)N2CCN(S(=O)(=O)c3cccs3)CC2)cc1
- cell number change: 75.7%
- AC50 [1]: 0.146 µM [falling, full curve, poor fit]

Compound: Cc1cc(C)cc(N(CC(=O)NCc2ccccc2Cl)S(=O)(=O)c2c(C)[nH]c(=O)[nH]c2=O)c1
- cell number change: -56.8%
- AC50 [2]: 10.3 µM [falling, partial curve]
- AC50 [1]: 7.31 µM [falling, partial curve, poor fit]

Compound: COc1cccc(COc2ccc(N(C)S(=O)(=O)c3ccccc3)cc2)c1
- cell number change: -8.57%
- AC50 [1]: 6.51 µM [rising, single point]

Compound: O=C(Nc1ccc(Cl)cc1)OCc1cn(-c2ccc(Cl)cc2)nn1
- cell number change: -16.1%
- AC50 [1]: 1.64 µM [falling, partial curve]

Compound: CC(C)c1cc(C(N)=O)c(NC(=O)c2cccc(COc3ccc(Cl)cc3)c2)s1
- cell number change: -22.1%
- AC50 [2]: 2.59 µM [rising, single point]

Compound: CCOC(=O)C1C(=O)C=C(N2CCOCC2)CC1c1cccc(OC)c1 (configuration not stated)
- cell number change: -17.5%
- AC50 [1]: 0.231 µM [falling, full curve, poor fit]

Compound: O=C(Oc1ccc(-n2cnnn2)cc1)c1ccccc1
- cell number change: -25%
- AC50 [1]: 29.1 µM [falling, partial curve]

Compound: NC(=O)C1CCN(C(=O)c2ccc3ccccc3c2)CC1
- cell number change: -20.8%

Compound: CCOc1ccc(S(=O)(=O)c2c(C(=O)c3ccccc3)cnc3cc4c(cc23)OCCO4)cc1
- cell number change: -17%
- AC50 [1]: 0.651 µM [rising, single point]

Compound: CCCCCn1c(=S)[nH]c2ncccc2c1=O
- cell number change: 21.3%
- AC50 [1]: 20.6 µM [falling, single point]

Compound: O=S(=O)(NCC1COc2ccccc2O1)c1ccc2ccccc2c1 (configuration not stated)
- cell number change: -16.7%
- AC50 [2]: 0.366 µM [falling, full curve, poor fit]

Compound: CC1CN(C(=O)C(C)Sc2nnnn2C)CC(C)O1 (configuration not stated)
- cell number change: 12.7%
- AC50 [2]: 2.06 µM [falling, partial curve]

Compound: CCOC(=O)c1c(NC(=O)CSc2nnc(-c3ccccc3C)n2C)sc(C(C)=O)c1C
- cell number change: -7.37%
- AC50 [2]: 0.231 µM [rising, full curve, poor fit]
- AC50 [1]: 0.651 µM [rising, full curve]

Compound: Cc1ccc(S(=O)(=O)Nc2ccccc2C(=O)OC(C)C(=O)Nc2ccc3ccccc3c2)cc1[N+](=O)[O-] (configuration not stated)
- cell number change: -1.06%
- AC50 [1]: 25.9 µM [rising, partial curve]

Compound: O=C(CSc1nc2ccccc2nc1N1CCCC1)Nc1ccc(Cl)cc1
- cell number change: 6.92%
- AC50 [1]: 29.1 µM [falling, single point]

Compound: CCOn1c(=O)c(-c2ccc(F)cc2)[n+]([O-])c2ccccc21
- cell number change: 44.4%
- AC50 [2]: 0.651 µM [rising, full curve, poor fit]

Compound: O=C(O)c1ccc(-n2nncc2-c2ccco2)cc1
- cell number change: 4.05%

Compound: CCCOc1ccc(C2NC(=S)NC(C)=C2C(=O)c2ccccc2)cc1OC (configuration not stated)
- cell number change: -13%
- AC50 [1]: 9.2 µM [falling, partial curve, poor fit]

Compound: Cc1cccc(/C=C2/S/C(=N/N=C3\CC4CCC3(C)C4(C)C)NC2=O)c1 (configuration not stated)
- cell number change: -70%
- AC50 [2]: 29.1 µM [falling, single point]
- AC50 [1]: 29.1 µM [falling, partial curve]

Compound: COc1cccc(Cn2c(NCc3ccco3)nc3c2c(=O)n(C)c(=O)n3C)c1
- cell number change: -117%
- AC50 [2]: 20.6 µM [falling, partial curve]
- AC50 [1]: 8.2 µM [falling, partial curve]

Compound: O=C(OCc1cc2ccccc2[nH]c1=O)C1CCCO1 (configuration not stated)
- cell number change: 1.1%
- AC50 [1]: 0.259 µM [falling, full curve, poor fit]

Compound: Cc1ccccc1-n1c(=O)/c(=C\c2ccco2)s/c1=C(/C#N)C(=O)Nc1ccccc1
- cell number change: -13.1%
- AC50 [1]: 7.31 µM [rising, full curve, poor fit]

Compound: Cc1ccc(N2C(=O)c3ccc(C(=O)O)cc3C2=O)cc1C
- cell number change: -42.3%
- AC50 [2]: 29.1 µM [falling, single point]

Compound: COc1cc(C(=O)Nc2ccc(OCC(=O)O)cc2)cc(OC)c1OC
- cell number change: 6.11%
- AC50 [1]: 1.16 µM [rising, full curve, poor fit]

Compound: CCOC(=O)c1cn(Cc2ccccc2)nn1
- cell number change: 34.2%
- AC50 [1]: 32.6 µM [rising, single point]

Compound: NC(=O)CC(NC(=O)Cc1cccc2ccccc12)c1ccc(N2CCN(c3ccc(F)cc3)CC2)c([N+](=O)[O-])c1 (configuration not stated)
- cell number change: -21.8%
- AC50 [2]: 0.651 µM [falling, full curve, poor fit]

Compound: Cc1cc(C)c2c(c1)cc(C)c1nnc(SCC(=O)Nc3ccc(S(=O)(=O)N4CCCCC4)cc3)n12
- cell number change: -9.44%
- AC50 [1]: 20.6 µM [falling, single point]

Compound: COc1ccccc1N1CCN(C2CCCN(C(=O)CN3CCCC3=O)C2)CC1 (configuration not stated)
- cell number change: 1.16%
- AC50 [1]: 29.1 µM [rising, single point]

Compound: COc1ccc([C@H]2CC(=O)C=C(c3ccc4c(c3)sc3ccccc34)C2)cc1
- cell number change: -23.1%
- AC50 [1]: 0.92 µM [falling, full curve]

Compound: CC(=O)Oc1c(Cl)cc(Cl)cc1/C=C/c1ccc2ccccc2n1
- cell number change: -65%
- AC50 [2]: 18.4 µM [falling, partial curve]
- AC50 [1]: 11.6 µM [falling, partial curve, poor fit]

Compound: COc1ccc(NC(=O)c2onc(C)c2Cl)cc1
- cell number change: -15.5%
- AC50 [1]: 29.1 µM [falling, single point]

Compound: CCOC(=O)c1c(N)n[nH]c1-c1ccc(OC)cc1
- AC50 [2]: 0.82 µM [rising, partial curve]
- AC50 [1]: 0.58 µM [rising, full curve]

Compound: CC(C)(C)NC(=O)NC(=O)COC(=O)CCCc1c[nH]c2ccccc12
- cell number change: 32.6%
- AC50 [2]: 0.82 µM [rising, full curve, poor fit]

Compound: CCc1[nH]nc(C(=O)N2CCCC(C(=O)c3cccc(OC(C)C)c3)C2)c1C (configuration not stated)
- cell number change: -30%
- AC50 [1]: 0.651 µM [falling, single point]

Compound: COc1ccc(C2SCC(=O)N2c2nc3ccccc3s2)cc1 (configuration not stated)
- cell number change: -0.594%
- AC50 [1]: 20.6 µM [rising, partial curve, poor fit]

Compound: CCc1ccccc1NS(=O)(=O)c1cc2c3c(c1)CCN3C(=O)CC2
- cell number change: -88.9%
- AC50 [2]: 16.4 µM [falling, single point]
- AC50 [1]: 18.4 µM [falling, single point]

Compound: CC1CCN(CCOc2ccc(OCc3ccccc3)cc2)CC1
- cell number change: 2.77%
- AC50 [1]: 0.116 µM [rising, full curve, poor fit]

Compound: O=S(=O)(NNc1nccc(C(F)(F)F)n1)c1cccc(Cl)c1Cl
- cell number change: -18.6%
- AC50 [1]: 9.2 µM [falling, partial curve, poor fit]

Compound: CCN(CC)S(=O)(=O)c1ccc(N/N=C/c2ccc(OC)c(OC)c2OC)nc1
- cell number change: 57%
- AC50 [2]: 29.1 µM [rising, single point]
- AC50 [1]: 1.64 µM [rising, partial curve]

Compound: CCCCNC(=S)N/N=C1\CCCCc2ccccc21
- cell number change: -1.15%
- AC50 [2]: 0.731 µM [rising, single point]

Compound: CCc1noc(C)c1C(=O)NNC(=O)c1cc(OC)c(OC)c(OC)c1
- cell number change: -6.89%
- AC50 [2]: 1.3 µM [falling, partial curve]
- AC50 [1]: 6.51 µM [falling, single point]

Compound: C/C(=N\NC(=O)c1cccc(C)c1)c1ccc(N2CCOCC2)cc1
- cell number change: 51.1%
- AC50 [2]: 9.2 µM [rising, partial curve]
- AC50 [1]: 6.51 µM [rising, single point]
